Structures can show the parent of a compound that is named as a salt. Some of the results follow. The calls rarely recur for the same compound in another form.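 Kinases were expressed as nanoluciferase fusions in K562 cells and luminescence was read every 4 h between 2 and 18 h as percent of control, DMSO set to 100% and a positive control to 0%. A time point counts as decreased when the signal drops significantly (2 sigma). The hit call is the authors' own, does not follow from the count of time points alone, and its rule is not shown.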
What was measured:
Assay in all cases: kinase-Nluc reporter destabilization hit call (1 = scored as downregulated) (binary); higher = compound decreases kinase abundance
Conditions in all cases: K562; 2-18 h
[1] = biological target: IRAK3 (UniProt Q9Y616)
[2] = biological target: JAK1 (UniProt P23458)
[3] = biological target: LCK (UniProt P06239)
[4] = biological target: LIMK1 (UniProt P53667)
[5] = biological target: LIMK2 (UniProt P53671)
[6] = biological target: LMTK2 (UniProt Q8IWU2)
[7] = biological target: LYN (UniProt P07948)
[8] = biological target: MAP2K1 (UniProt Q02750)
[9] = biological target: MAP2K2 (UniProt P36507)
[10] = biological target: MAP4K2 (UniProt Q12851)
[11] = biological target: MAPK1 (UniProt P28482)
[12] = biological target: MAPK4 (UniProt P31152)
[13] = biological target: MAPKAPK2 (UniProt P49137)
[14] = biological target: MKNK1 (UniProt Q9BUB5)
[15] = biological target: NTRK2 (UniProt Q16620)
[16] = biological target: NTRK3 (UniProt Q16288)
[17] = biological target: PAK4 (UniProt O96013)
[18] = biological target: PBK (UniProt Q96KB5)
[19] = biological target: PDGFRB (UniProt P09619)
[20] = biological target: PDK1 (UniProt Q15118)

Sequences of proteins named here, by UniProt entry; tags and fusion partners are left off. A change or cut given only in a name is not applied to a line headed by its entry.
UniProt Q9Y616: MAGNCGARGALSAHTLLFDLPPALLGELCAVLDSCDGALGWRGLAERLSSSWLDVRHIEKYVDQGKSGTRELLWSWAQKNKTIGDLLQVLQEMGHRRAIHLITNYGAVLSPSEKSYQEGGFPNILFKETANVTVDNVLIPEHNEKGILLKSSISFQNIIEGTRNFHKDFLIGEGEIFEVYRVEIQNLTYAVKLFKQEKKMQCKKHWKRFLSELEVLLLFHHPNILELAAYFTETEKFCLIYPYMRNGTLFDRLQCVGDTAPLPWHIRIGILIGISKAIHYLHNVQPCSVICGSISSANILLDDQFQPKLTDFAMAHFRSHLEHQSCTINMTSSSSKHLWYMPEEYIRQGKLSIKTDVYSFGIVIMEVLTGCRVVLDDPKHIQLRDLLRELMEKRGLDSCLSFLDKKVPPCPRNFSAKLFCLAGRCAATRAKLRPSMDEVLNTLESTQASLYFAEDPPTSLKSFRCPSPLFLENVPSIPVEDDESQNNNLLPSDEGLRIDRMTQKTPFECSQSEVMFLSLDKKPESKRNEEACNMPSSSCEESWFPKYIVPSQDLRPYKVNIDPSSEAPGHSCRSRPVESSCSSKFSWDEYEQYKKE
UniProt P23458: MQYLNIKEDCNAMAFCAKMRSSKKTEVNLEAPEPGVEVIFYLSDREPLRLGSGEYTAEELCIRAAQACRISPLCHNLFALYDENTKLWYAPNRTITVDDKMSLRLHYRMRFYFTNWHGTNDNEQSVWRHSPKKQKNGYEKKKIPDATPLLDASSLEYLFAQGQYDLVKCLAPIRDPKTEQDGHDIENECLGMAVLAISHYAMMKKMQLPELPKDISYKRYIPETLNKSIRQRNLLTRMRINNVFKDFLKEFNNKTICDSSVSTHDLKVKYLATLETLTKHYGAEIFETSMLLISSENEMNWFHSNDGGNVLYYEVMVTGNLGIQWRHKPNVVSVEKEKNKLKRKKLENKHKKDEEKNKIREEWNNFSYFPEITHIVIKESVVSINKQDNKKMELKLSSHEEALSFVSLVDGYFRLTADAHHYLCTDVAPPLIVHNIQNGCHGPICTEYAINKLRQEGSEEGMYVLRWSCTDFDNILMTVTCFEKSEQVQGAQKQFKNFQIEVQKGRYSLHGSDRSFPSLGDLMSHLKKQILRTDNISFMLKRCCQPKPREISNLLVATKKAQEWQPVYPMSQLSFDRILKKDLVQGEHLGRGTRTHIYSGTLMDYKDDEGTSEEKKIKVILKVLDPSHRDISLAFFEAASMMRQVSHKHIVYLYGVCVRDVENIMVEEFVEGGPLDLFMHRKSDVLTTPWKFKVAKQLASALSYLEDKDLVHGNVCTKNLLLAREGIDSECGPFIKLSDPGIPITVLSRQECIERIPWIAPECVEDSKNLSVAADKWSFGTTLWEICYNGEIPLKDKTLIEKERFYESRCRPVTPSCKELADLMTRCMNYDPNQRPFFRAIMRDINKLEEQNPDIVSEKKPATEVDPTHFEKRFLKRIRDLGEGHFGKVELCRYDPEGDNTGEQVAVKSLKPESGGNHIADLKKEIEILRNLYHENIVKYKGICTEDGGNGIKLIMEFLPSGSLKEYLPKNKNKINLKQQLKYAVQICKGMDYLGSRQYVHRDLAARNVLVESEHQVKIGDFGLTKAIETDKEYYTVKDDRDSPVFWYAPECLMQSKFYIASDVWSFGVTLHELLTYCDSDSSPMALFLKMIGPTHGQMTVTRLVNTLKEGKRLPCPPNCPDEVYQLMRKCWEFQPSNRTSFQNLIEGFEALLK
UniProt P53667: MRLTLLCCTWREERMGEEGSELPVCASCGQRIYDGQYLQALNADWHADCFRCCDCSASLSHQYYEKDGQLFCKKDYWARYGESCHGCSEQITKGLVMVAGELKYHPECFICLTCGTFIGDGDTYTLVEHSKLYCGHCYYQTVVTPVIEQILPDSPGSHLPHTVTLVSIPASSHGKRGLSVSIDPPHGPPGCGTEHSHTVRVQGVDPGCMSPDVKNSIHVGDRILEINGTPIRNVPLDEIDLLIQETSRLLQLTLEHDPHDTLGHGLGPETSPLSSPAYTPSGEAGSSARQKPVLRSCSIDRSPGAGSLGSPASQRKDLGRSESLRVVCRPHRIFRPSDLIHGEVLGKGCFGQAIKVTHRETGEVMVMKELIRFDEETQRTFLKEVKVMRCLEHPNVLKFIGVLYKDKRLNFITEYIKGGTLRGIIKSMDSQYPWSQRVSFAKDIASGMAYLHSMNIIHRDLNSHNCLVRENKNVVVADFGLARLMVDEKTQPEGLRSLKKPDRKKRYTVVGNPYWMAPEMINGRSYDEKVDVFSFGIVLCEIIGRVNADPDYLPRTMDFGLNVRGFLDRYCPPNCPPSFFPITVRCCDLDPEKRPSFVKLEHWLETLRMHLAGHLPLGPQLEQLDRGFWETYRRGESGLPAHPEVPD
UniProt P53671: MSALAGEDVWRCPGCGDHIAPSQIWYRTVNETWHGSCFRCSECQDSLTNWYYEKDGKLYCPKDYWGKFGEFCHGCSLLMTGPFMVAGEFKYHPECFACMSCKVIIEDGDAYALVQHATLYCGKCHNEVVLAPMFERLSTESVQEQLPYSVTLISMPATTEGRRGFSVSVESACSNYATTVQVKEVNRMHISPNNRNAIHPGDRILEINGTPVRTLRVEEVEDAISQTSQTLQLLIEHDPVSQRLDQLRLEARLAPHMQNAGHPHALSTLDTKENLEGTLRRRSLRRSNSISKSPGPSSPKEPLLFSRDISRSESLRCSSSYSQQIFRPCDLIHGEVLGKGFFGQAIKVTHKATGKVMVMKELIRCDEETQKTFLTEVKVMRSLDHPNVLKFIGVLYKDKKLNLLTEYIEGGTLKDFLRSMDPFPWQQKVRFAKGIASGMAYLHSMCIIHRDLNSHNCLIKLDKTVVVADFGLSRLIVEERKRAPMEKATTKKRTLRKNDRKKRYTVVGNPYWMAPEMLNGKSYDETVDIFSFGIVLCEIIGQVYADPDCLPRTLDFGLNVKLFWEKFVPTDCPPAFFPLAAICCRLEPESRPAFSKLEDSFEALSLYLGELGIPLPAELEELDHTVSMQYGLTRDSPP
UniProt Q9BUB5: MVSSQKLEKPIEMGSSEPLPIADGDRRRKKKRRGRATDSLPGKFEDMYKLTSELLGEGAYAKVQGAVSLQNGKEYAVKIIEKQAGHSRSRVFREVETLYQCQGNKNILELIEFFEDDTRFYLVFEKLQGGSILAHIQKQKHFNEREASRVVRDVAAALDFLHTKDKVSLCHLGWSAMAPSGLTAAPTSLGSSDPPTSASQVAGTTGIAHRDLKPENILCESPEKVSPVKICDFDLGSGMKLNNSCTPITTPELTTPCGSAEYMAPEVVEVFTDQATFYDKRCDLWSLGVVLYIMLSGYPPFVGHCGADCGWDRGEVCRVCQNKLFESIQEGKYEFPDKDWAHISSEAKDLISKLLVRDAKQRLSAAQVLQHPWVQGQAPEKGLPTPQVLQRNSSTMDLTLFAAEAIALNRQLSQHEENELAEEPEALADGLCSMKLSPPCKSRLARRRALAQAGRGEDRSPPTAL
UniProt Q16620, whole entry, looked up: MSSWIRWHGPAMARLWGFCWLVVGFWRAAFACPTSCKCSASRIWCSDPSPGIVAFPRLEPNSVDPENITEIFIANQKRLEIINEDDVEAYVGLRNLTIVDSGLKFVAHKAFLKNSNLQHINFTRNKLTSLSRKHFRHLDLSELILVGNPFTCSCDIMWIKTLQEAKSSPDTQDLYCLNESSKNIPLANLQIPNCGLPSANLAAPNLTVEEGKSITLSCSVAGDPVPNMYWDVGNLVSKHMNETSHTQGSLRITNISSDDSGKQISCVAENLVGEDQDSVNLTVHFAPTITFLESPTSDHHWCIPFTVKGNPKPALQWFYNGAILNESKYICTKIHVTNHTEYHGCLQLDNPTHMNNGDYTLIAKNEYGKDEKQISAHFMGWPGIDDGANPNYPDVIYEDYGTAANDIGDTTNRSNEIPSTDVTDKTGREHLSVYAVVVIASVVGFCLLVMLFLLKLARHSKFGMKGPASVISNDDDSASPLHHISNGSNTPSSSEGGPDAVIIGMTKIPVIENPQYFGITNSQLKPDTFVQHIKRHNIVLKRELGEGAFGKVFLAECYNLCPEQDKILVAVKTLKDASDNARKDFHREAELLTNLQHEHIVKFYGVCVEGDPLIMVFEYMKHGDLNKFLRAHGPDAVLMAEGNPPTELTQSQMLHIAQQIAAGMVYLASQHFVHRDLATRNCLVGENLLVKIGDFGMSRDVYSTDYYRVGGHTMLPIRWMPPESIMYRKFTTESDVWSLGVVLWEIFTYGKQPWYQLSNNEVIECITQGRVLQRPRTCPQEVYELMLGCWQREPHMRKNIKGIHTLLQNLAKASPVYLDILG
UniProt Q16288, whole entry, looked up: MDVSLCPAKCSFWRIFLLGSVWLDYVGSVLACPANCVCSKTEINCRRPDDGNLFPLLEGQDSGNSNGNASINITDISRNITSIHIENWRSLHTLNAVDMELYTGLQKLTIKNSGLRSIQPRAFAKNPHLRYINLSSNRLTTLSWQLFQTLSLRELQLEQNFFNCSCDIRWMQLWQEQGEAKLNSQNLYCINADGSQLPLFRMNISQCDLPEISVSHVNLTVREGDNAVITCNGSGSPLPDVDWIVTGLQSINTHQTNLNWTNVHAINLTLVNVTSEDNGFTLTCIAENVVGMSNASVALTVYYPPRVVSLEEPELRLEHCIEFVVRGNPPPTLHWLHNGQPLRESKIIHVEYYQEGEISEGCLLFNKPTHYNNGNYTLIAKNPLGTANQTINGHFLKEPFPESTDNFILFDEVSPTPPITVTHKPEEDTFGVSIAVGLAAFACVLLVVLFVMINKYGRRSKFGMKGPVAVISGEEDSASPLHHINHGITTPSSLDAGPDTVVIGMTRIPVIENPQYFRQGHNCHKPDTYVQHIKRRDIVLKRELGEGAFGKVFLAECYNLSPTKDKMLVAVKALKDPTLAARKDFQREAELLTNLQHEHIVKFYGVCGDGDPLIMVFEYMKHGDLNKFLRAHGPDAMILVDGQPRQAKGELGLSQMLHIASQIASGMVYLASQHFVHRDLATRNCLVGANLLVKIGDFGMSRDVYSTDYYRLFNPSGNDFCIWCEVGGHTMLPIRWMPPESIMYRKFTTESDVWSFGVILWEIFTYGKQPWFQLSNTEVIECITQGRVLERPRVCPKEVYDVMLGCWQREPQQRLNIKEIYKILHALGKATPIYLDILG
UniProt Q96KB5: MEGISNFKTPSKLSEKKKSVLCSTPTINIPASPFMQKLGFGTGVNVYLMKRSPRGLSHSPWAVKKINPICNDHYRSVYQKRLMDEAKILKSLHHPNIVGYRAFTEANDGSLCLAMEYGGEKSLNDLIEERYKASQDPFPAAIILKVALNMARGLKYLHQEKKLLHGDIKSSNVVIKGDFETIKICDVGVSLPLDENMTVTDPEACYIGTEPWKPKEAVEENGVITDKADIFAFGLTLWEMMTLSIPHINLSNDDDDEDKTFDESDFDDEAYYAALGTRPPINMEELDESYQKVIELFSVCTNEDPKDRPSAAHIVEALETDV
UniProt P09619, whole entry: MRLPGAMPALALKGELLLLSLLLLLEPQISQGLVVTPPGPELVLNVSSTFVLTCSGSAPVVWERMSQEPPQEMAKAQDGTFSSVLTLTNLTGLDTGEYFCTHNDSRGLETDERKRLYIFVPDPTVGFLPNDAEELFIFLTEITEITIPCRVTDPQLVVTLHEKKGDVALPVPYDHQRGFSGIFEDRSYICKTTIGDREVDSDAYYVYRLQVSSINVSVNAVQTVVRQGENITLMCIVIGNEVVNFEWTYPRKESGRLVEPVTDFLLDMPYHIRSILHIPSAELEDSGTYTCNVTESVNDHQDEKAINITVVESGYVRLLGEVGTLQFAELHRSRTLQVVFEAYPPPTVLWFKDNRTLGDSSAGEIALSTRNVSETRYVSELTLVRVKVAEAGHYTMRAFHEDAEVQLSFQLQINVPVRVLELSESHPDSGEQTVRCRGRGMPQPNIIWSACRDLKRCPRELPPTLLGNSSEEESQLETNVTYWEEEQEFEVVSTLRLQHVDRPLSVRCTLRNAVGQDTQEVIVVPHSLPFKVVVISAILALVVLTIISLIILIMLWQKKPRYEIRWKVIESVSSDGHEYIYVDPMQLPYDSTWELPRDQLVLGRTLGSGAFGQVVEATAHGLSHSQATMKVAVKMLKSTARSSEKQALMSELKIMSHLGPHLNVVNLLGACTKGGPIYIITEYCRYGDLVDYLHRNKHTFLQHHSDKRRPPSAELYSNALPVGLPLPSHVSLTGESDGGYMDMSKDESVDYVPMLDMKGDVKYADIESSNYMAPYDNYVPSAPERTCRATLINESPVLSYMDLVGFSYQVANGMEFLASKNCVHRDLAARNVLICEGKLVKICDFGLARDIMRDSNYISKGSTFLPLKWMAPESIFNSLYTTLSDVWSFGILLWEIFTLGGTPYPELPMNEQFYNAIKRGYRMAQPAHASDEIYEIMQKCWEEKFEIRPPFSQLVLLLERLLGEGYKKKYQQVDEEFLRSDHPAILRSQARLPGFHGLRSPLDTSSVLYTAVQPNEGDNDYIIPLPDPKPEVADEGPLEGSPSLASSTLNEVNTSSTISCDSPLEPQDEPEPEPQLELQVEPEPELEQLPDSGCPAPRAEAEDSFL

Measured: kinase-Nluc reporter destabilization hit call

COc1cc2ncnc(Oc3ccc(CC(=O)Nc4cnn(C(C)C)c4)cc3)c2cc1OC (10 µM)
inactive: [1] 0 | [2] 0 | [3] 0 | [4] 0 | [5] 0 | [6] 0 | [7] 0 | [8] 0 | [9] 0 | [10] 0 | [11] 0 | [12] 0 | [13] 0 | [14] 0 | [15] 0 | [16] 0 | [17] 0 | [18] 0 | [19] 0 | [20] 0

Clc1ccc(C(c2ccc(Cl)cc2)[n+]2ccn(CC(OCc3ccc(Cl)cc3Cl)c3ccc(Cl)cc3Cl)c2)cc1 (stereo not given) [Calmidazolium chloride] (2.5 µM)
inactive: [1] 0 | [2] 0 | [3] 0 | [4] 0 | [5] 0 | [6] 0 | [7] 0 | [8] 0 | [9] 0 | [10] 0 | [11] 0 | [12] 0 | [13] 0 | [14] 0 | [15] 0 | [16] 0 | [17] 0 | [18] 0 | [19] 0 | [20] 0

Nc1nc2c(nc(Br)n2[C@@H]2O[C@@H]3COP(=O)(O)O[C@H]3[C@H]2O)c(=O)[nH]1 [8-Bromo-cGMP (sodium)] (10 µM)
inactive: [1] 0 | [2] 0 | [3] 0 | [4] 0 | [5] 0 | [6] 0 | [7] 0 | [8] 0 | [9] 0 | [10] 0 | [11] 0 | [12] 0 | [13] 0 | [14] 0 | [15] 0 | [16] 0 | [17] 0 | [18] 0 | [19] 0 | [20] 0

NC[C@@](O)(c1ccc(Cl)cc1)c1ccc(-c2cn[nH]c2)cc1 (10 µM)
inactive: [1] 0 | [2] 0 | [3] 0 | [4] 0 | [5] 0 | [6] 0 | [7] 0 | [8] 0 | [9] 0 | [10] 0 | [11] 0 | [12] 0 | [13] 0 | [14] 0 | [15] 0 | [16] 0 | [17] 0 | [18] 0 | [19] 0 | [20] 0

CNC(=O)CNc1cnc2ccc(-c3ccc(OC)c(OC)c3)cc2n1 (10 µM)
inactive: [1] 0 | [2] 0 | [3] 0 | [4] 0 | [5] 0 | [6] 0 | [7] 0 | [8] 0 | [9] 0 | [10] 0 | [11] 0 | [12] 0 | [13] 0 | [14] 0 | [15] 0 | [16] 0 | [17] 0 | [18] 0 | [19] 0 | [20] 0

O=C(Nc1cccc(-c2nc(-c3ccc(NC(=O)c4cccnc4)cc3Cl)no2)c1)Nc1ccc(NC(=O)C2CC2)c(C(F)(F)F)c1 (2.5 µM)
inactive: [1] 0 | [2] 0 | [3] 0 | [4] 0 | [5] 0 | [6] 0 | [7] 0 | [8] 0 | [9] 0 | [10] 0 | [11] 0 | [12] 0 | [13] 0 | [14] 0 | [15] 0 | [16] 0 | [17] 0 | [18] 0 | [19] 0 | [20] 0

C#Cc1cccc(Nc2ncnc3cc(OC)c(NC(=O)N4C[C@H]5CCN(C)[C@H]5C4)cc23)c1 [Theliatinib] (10 µM)
inactive: [1] 0 | [2] 0 | [3] 0 | [4] 0 | [5] 0 | [6] 0 | [7] 0 | [8] 0 | [9] 0 | [10] 0 | [11] 0 | [12] 0 | [13] 0 | [14] 0 | [15] 0 | [16] 0 | [17] 0 | [18] 0 | [19] 0 | [20] 0

COc1cc2nccc(Oc3ccc(NC(=O)c4cn(C(C)C)c(=O)n(-c5ccc(F)cc5)c4=O)cc3F)c2cc1OC (0.5 µM)
inactive: [1] 0 | [2] 0 | [3] 0 | [4] 0 | [5] 0 | [6] 0 | [7] 0 | [8] 0 | [9] 0 | [10] 0 | [11] 0 | [12] 0 | [13] 0 | [14] 0 | [15] 0 | [16] 0 | [17] 0 | [18] 0 | [19] 0 | [20] 0

O=C1Nc2ccc(CN3C(=O)CSC3=O)cc2/C1=C/c1cc(CN2CCOCC2)c[nH]1 (10 µM)
inactive: [1] 0 | [2] 0 | [3] 0 | [4] 0 | [5] 0 | [6] 0 | [7] 0 | [8] 0 | [9] 0 | [10] 0 | [11] 0 | [12] 0 | [13] 0 | [14] 0 | [15] 0 | [16] 0 | [17] 0 | [18] 0 | [19] 0 | [20] 0

Three entries already listed, arranged by SMILES length, rising:
CNC(=O)CNc1cnc2ccc(-c3ccc(OC)c(OC)c3)cc2n1 (10 µM)
inactive: [1] 0 | [2] 0 | [3] 0 | [4] 0 | [5] 0 | [6] 0 | [7] 0 | [8] 0 | [9] 0 | [10] 0 | [11] 0 | [12] 0 | [13] 0 | [14] 0 | [15] 0 | [16] 0 | [17] 0 | [18] 0 | [19] 0 | [20] 0

O=C1Nc2ccc(CN3C(=O)CSC3=O)cc2/C1=C/c1cc(CN2CCOCC2)c[nH]1 (10 µM)
inactive: [1] 0 | [2] 0 | [3] 0 | [4] 0 | [5] 0 | [6] 0 | [7] 0 | [8] 0 | [9] 0 | [10] 0 | [11] 0 | [12] 0 | [13] 0 | [14] 0 | [15] 0 | [16] 0 | [17] 0 | [18] 0 | [19] 0 | [20] 0

C#Cc1cccc(Nc2ncnc3cc(OC)c(NC(=O)N4C[C@H]5CCN(C)[C@H]5C4)cc23)c1 [Theliatinib] (10 µM)
inactive: [1] 0 | [2] 0 | [3] 0 | [4] 0 | [5] 0 | [6] 0 | [7] 0 | [8] 0 | [9] 0 | [10] 0 | [11] 0 | [12] 0 | [13] 0 | [14] 0 | [15] 0 | [16] 0 | [17] 0 | [18] 0 | [19] 0 | [20] 0

Carrying on.

CC1CN(CC2CCN(Cc3ccccc3)CC2)C(=O)N(c2cccc(C(=N)N)c2)C1 (stereo not given) (10 µM)
inactive: [1] 0 | [2] 0 | [3] 0 | [4] 0 | [5] 0 | [6] 0 | [7] 0 | [8] 0 | [9] 0 | [10] 0 | [11] 0 | [12] 0 | [13] 0 | [14] 0 | [15] 0 | [16] 0 | [17] 0 | [18] 0 | [19] 0 | [20] 0

NC(=O)c1cnc(-c2ccc(C3(N)CCC3)cc2)c(-c2ccccc2)c1 (10 µM)
inactive: [1] 0 | [2] 0 | [3] 0 | [4] 0 | [5] 0 | [6] 0 | [7] 0 | [8] 0 | [9] 0 | [10] 0 | [11] 0 | [12] 0 | [13] 0 | [14] 0 | [15] 0 | [16] 0 | [17] 0 | [18] 0 | [19] 0 | [20] 0

Cc1nc[nH]c1CN1CCN(C(=O)N[C@@H](CC(C)C)C(=O)O)[C@@H](Cc2ccccc2)C1=O (10 µM)
inactive: [1] 0 | [2] 0 | [3] 0 | [4] 0 | [5] 0 | [6] 0 | [7] 0 | [8] 0 | [9] 0 | [10] 0 | [11] 0 | [12] 0 | [13] 0 | [14] 0 | [15] 0 | [16] 0 | [17] 0 | [18] 0 | [19] 0 | [20] 0

CC(C)n1ncnc1-c1cn2c(n1)-c1ccc(O[C@@H](C)C(N)=O)cc1OCC2 (10 µM)
inactive: [1] 0 | [2] 0 | [3] 0 | [4] 0 | [5] 0 | [6] 0 | [7] 0 | [8] 0 | [9] 0 | [10] 0 | [11] 0 | [12] 0 | [13] 0 | [14] 0 | [15] 0 | [16] 0 | [17] 0 | [18] 0 | [19] 0 | [20] 0

O=C1NC(=O)/C(=C\c2c[nH]c(=O)c(-c3ccc(N4CCNCC4)nc3)c2)S1 [Protein kinase inhibitors 1 hydrochloride] (10 µM)
inactive: [1] 0 | [2] 0 | [3] 0 | [4] 0 | [5] 0 | [6] 0 | [7] 0 | [8] 0 | [9] 0 | [10] 0 | [11] 0 | [12] 0 | [13] 0 | [14] 0 | [15] 0 | [16] 0 | [17] 0 | [18] 0 | [19] 0 | [20] 0

Cc1cc(C(=O)NOCCO)c(Nc2ccc(I)cc2F)n(C)c1=O (10 µM)
inactive: [1] 0 | [2] 0 | [3] 0 | [4] 0 | [5] 0 | [6] 0 | [7] 0 | [8] 0 | [9] 0 | [10] 0 | [11] 0 | [12] 0 | [13] 0 | [14] 0 | [15] 0 | [16] 0 | [17] 0 | [18] 0 | [19] 0 | [20] 0

Cc1ccc(C)c(OCCn2cc(C(=O)O)c3ccccc32)c1 (10 µM)
inactive: [1] 0 | [2] 0 | [3] 0 | [4] 0 | [5] 0 | [6] 0 | [7] 0 | [8] 0 | [9] 0 | [10] 0 | [11] 0 | [12] 0 | [13] 0 | [14] 0 | [15] 0 | [16] 0 | [17] 0 | [18] 0 | [19] 0 | [20] 0

From the supplement of paper PMC12823440, “Inhibitors supercharge kinase turnover through native proteolytic circuits” (Nature, 2025)
